Measurements reported in PubChem BioAssay AID743121 (NCATS, 2013).
Purpose: 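Knock-downs that sensitise breast cancer cells to camptothecin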 (primary screen). Cell system: MDA-MB-231 cells, a human breast cancer line. Reagents: single siRNA against human genes, 20 nM siRNA (0.8 pmol per well). Timing: 120 h (drug added 48 h after transfection, read 72 h later). Challenge: camptothecin 20 nM (about EC30) for 72 h; vehicle 0.1% DMSO in parallel plates. Measured: 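CellTiter-Glo ATP signal, scaled to control siRNA as percent viability; sensitisation given as log2 of untreated divided by camptothecin-treated viability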. Direction: log2 vehicle/camptothecin viability: higher = stronger sensitisation to camptothecin. Active means: 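Active genes have an RSA gene-level p-value below 0.001, computed from the ratios of their separate siRNAs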.
The whole screen tested about 26,000 reagents; this is an unselected part. Of all reagents, 167 (0.63%) got an active call. 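Calls are per gene from RSA p-values that are not deposited; an individual active-marked siRNA can sensitise only weakly.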 Reagents against one gene are numbered here. Not all columns of the deposit are shown.

{"gene":"SALL1 (spalt like transcription factor 1)","reagent":1,"log2 vehicle/camptothecin viability":0.0457,"activity call":"inactive"}
{"gene":"SALL1 (spalt like transcription factor 1)","reagent":2,"log2 vehicle/camptothecin viability":-0.331,"activity call":"inactive"}
{"gene":"SALL1 (spalt like transcription factor 1)","reagent":3,"log2 vehicle/camptothecin viability":-0.32,"activity call":"inactive"}
{"gene":"SALL1 (spalt like transcription factor 1)","reagent":4,"log2 vehicle/camptothecin viability":-0.672,"activity call":"inactive"}
{"gene":"LEF1 (lymphoid enhancer binding factor 1)","reagent":1,"log2 vehicle/camptothecin viability":-0.473,"activity call":"inactive"}
{"gene":"LEF1 (lymphoid enhancer binding factor 1)","reagent":2,"log2 vehicle/camptothecin viability":-0.105,"activity call":"inactive"}
{"gene":"LEF1 (lymphoid enhancer binding factor 1)","reagent":3,"log2 vehicle/camptothecin viability":0.0618,"activity call":"inactive"}
{"gene":"LEF1 (lymphoid enhancer binding factor 1)","reagent":4,"log2 vehicle/camptothecin viability":0.28,"activity call":"inactive"}
{"gene":"THRAP3 (thyroid hormone receptor associated protein 3)","reagent":1,"log2 vehicle/camptothecin viability":-0.214,"activity call":"inactive"}
{"gene":"THRAP3 (thyroid hormone receptor associated protein 3)","reagent":2,"log2 vehicle/camptothecin viability":-0.288,"activity call":"inactive"}
{"gene":"THRAP3 (thyroid hormone receptor associated protein 3)","reagent":3,"log2 vehicle/camptothecin viability":-0.304,"activity call":"inactive"}
{"gene":"AMMECR1 (AMMECR nuclear protein 1)","reagent":1,"log2 vehicle/camptothecin viability":0.388,"activity call":"inactive"}
{"gene":"AMMECR1 (AMMECR nuclear protein 1)","reagent":2,"log2 vehicle/camptothecin viability":0.0837,"activity call":"inactive"}
{"gene":"AMMECR1 (AMMECR nuclear protein 1)","reagent":3,"log2 vehicle/camptothecin viability":0.451,"activity call":"inactive"}
{"gene":"DUSP1 (dual specificity phosphatase 1)","reagent":1,"log2 vehicle/camptothecin viability":-0.326,"activity call":"inactive"}
{"gene":"DUSP1 (dual specificity phosphatase 1)","reagent":2,"log2 vehicle/camptothecin viability":-0.139,"activity call":"inactive"}
{"gene":"DUSP1 (dual specificity phosphatase 1)","reagent":3,"log2 vehicle/camptothecin viability":-0.317,"activity call":"inactive"}
{"gene":"DUSP1 (dual specificity phosphatase 1)","reagent":4,"log2 vehicle/camptothecin viability":-0.113,"activity call":"inactive"}
{"gene":"LYVE1 (lymphatic vessel endothelial hyaluronan receptor 1)","reagent":1,"log2 vehicle/camptothecin viability":-0.0877,"activity call":"inactive"}
{"gene":"LYVE1 (lymphatic vessel endothelial hyaluronan receptor 1)","reagent":2,"log2 vehicle/camptothecin viability":-0.401,"activity call":"inactive"}
{"gene":"LYVE1 (lymphatic vessel endothelial hyaluronan receptor 1)","reagent":3,"log2 vehicle/camptothecin viability":-0.0704,"activity call":"inactive"}
{"gene":"LYVE1 (lymphatic vessel endothelial hyaluronan receptor 1)","reagent":4,"log2 vehicle/camptothecin viability":-0.00617,"activity call":"inactive"}
{"gene":"ALDH9A1 (aldehyde dehydrogenase 9 family member A1)","reagent":1,"log2 vehicle/camptothecin viability":-0.187,"activity call":"inactive"}
{"gene":"ALDH9A1 (aldehyde dehydrogenase 9 family member A1)","reagent":2,"log2 vehicle/camptothecin viability":-0.0714,"activity call":"inactive"}
{"gene":"ALDH9A1 (aldehyde dehydrogenase 9 family member A1)","reagent":3,"log2 vehicle/camptothecin viability":-0.529,"activity call":"inactive"}
{"gene":"ALDH9A1 (aldehyde dehydrogenase 9 family member A1)","reagent":4,"log2 vehicle/camptothecin viability":-0.0963,"activity call":"inactive"}
{"gene":"NPEPPS (aminopeptidase puromycin sensitive)","reagent":1,"log2 vehicle/camptothecin viability":0.257,"activity call":"inactive"}
{"gene":"NPEPPS (aminopeptidase puromycin sensitive)","reagent":2,"log2 vehicle/camptothecin viability":-0.0729,"activity call":"inactive"}
{"gene":"NPEPPS (aminopeptidase puromycin sensitive)","reagent":3,"log2 vehicle/camptothecin viability":0.176,"activity call":"inactive"}
{"gene":"NPEPPS (aminopeptidase puromycin sensitive)","reagent":4,"log2 vehicle/camptothecin viability":0.136,"activity call":"inactive"}
{"gene":"GEMIN6 (gem nuclear organelle associated protein 6)","reagent":1,"log2 vehicle/camptothecin viability":-0.0046,"activity call":"inactive"}
{"gene":"GEMIN6 (gem nuclear organelle associated protein 6)","reagent":2,"log2 vehicle/camptothecin viability":0.0903,"activity call":"inactive"}
{"gene":"GEMIN6 (gem nuclear organelle associated protein 6)","reagent":3,"log2 vehicle/camptothecin viability":0.158,"activity call":"inactive"}
{"gene":"GEMIN6 (gem nuclear organelle associated protein 6)","reagent":4,"log2 vehicle/camptothecin viability":0.317,"activity call":"inactive"}
{"gene":"TUBB6 (tubulin beta 6 class V)","reagent":1,"log2 vehicle/camptothecin viability":-0.423,"activity call":"inactive"}
{"gene":"TUBB6 (tubulin beta 6 class V)","reagent":2,"log2 vehicle/camptothecin viability":0.31,"activity call":"inactive"}
{"gene":"TUBB6 (tubulin beta 6 class V)","reagent":3,"log2 vehicle/camptothecin viability":-0.474,"activity call":"inactive"}
{"gene":"TUBB6 (tubulin beta 6 class V)","reagent":4,"log2 vehicle/camptothecin viability":-0.341,"activity call":"inactive"}
{"gene":"RANBP2 (RAN binding protein 2)","reagent":1,"log2 vehicle/camptothecin viability":0.0277,"activity call":"inactive"}
{"gene":"RANBP2 (RAN binding protein 2)","reagent":2,"log2 vehicle/camptothecin viability":-0.0233,"activity call":"inactive"}
{"gene":"RANBP2 (RAN binding protein 2)","reagent":3,"log2 vehicle/camptothecin viability":-0.356,"activity call":"inactive"}
{"gene":"RANBP2 (RAN binding protein 2)","reagent":4,"log2 vehicle/camptothecin viability":-0.077,"activity call":"inactive"}
{"gene":"VARS2 (valyl-tRNA synthetase 2, mitochondrial)","reagent":1,"log2 vehicle/camptothecin viability":-0.515,"activity call":"inactive"}
{"gene":"VARS2 (valyl-tRNA synthetase 2, mitochondrial)","reagent":2,"log2 vehicle/camptothecin viability":0.0819,"activity call":"inactive"}
{"gene":"VARS2 (valyl-tRNA synthetase 2, mitochondrial)","reagent":3,"log2 vehicle/camptothecin viability":-0.303,"activity call":"inactive"}
{"gene":"VARS2 (valyl-tRNA synthetase 2, mitochondrial)","reagent":4,"log2 vehicle/camptothecin viability":-0.246,"activity call":"inactive"}
